Reference: article PMC11489095

By UniProt entry, the sequences of proteins in these tests, tags left out. Where a name states a change or a piece, a line headed by the entry shows the natural chain unless it says otherwise.
UniProt Q56XE4: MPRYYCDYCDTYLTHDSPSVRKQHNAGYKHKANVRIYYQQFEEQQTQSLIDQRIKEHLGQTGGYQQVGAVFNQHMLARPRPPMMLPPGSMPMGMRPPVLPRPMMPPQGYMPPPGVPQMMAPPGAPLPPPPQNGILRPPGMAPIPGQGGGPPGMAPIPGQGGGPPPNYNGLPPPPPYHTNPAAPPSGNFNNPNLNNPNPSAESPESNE

Legend:
[1] = target: T1, GFP-U1-A (Arabidopsis thaliana) (UniProt Q39244); experiment: co-IP; proteins transiently co-expressed in N. benthamiana; immunoprecipitation with a GFP-affinity matrix; blots with GFP- and MYC-specific antibodies
T1 sequence: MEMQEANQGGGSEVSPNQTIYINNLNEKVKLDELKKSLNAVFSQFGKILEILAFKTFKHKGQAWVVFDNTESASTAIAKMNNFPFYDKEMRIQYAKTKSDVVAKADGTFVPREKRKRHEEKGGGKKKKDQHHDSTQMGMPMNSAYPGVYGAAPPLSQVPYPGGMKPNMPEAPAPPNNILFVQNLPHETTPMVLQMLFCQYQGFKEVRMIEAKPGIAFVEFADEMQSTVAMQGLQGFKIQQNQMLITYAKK

[2] = target: RFP-U1-C (Arabidopsis thaliana) (UniProt Q56XE4); experiment: co-IP; proteins transiently co-expressed in N. benthamiana; RFP-trap beads (Chromotek), 1 h at 4 °C; lysis buffer 50 mM Tris-HCl pH 7.5, 150 mM NaCl, 10% glycerol, 0.5% Triton X-100, 0.5% Nonidet P 40 Substitute; blots with RFP-, HA- and G/YFP-specific antibodies
[3] = target: RFP-U1-C (Arabidopsis thaliana) (UniProt Q56XE4); experiment: co-IP; as a1, with RNase A at a final concentration of 10 µg ml^-1 added to the IP samples
[4] = target: GFP-U1-C (Arabidopsis thaliana) (UniProt Q56XE4); experiment: co-IP; proteins transiently co-expressed in N. benthamiana; immunoprecipitation with a GFP-affinity matrix; blots with GFP- and MYC-specific antibodies

binding [1]: binds
Molecule: MYC-CFI68 (Arabidopsis thaliana)

binding [4]: binds
B2: MYC-tagged CBP20 (protein, UniProt Q9XFD1 1-257)
chain: MASLFKEQAKLSAYRDRRFSGTQEEFDEALRASTTVYIGNVSFYTTEEQLYELFSRAGEIKKIIMGLDKNTKTPCGFCFVLFYSREDTEDAVKYISGTILDDRPIRVDFDWGFQEGRQWGRGRSGGQVRDEYRTDYDPARGGYGKLVQKELEAQRQLVDYGTGSLGAYPQAAPTNYGNGRRGGGNYGQGGQNRHGRGDYHRKRQRDDDRYGRDNSRRNTDHESRRDTDSDMRPEKNPRFRESGDSDDDGEDDRKRRS

The remaining lines, values behind:

B1: HA-FY (protein, UniProt Q6NLV4 1-647)
chain: MYAGGDMHRGSQMPQPPMMRQSSASSTNINPDYHHPSGPFDPNVDSFGAKRMRKHTQRRAVDYTSTVVRYIQARTWQRDSRDRTTLQPTPAAAVDMLPTVAYSDNPSTSFAAKFVHASLNKNRCSINRVLWTPSGRRLITGSQSGEFTLWNGQSFNFEMILQAHDQPIRSMVWSHNENYMVSGDDGGTLKYWQNNMNNVKANKTAHKESIRDLSFCKTDLKFCSCSDDTTVKVWDFTKCVDESSLTGHGWDVKSVDWHPTKSLLVSGGKDQLVKLWDTRSGRELCSLHGHKNIVLSVKWNQNGNWLLTASKDQIIKLYDIRTMKELQSFRGHTKDVTSLAWHPCHEEYFVSGSSDGSICHWIVGHENPQIEIPNAHDNSVWDLAWHPIGYLLCSGSNDHTTKFWCRNRPADNPRDVLMQNQGYNEQGFGRQPDNFQPSEASPIPGAFVPGLTRNEGTIPGIGIAMPFDASSQGDHKQPLPGSMALGAPPLPPGPHPSLLGSGQQQGYQQQQQHQGHPQQMLPMPNMPHHQLPPSSHMPLHPHHLPRPMQMPPHGHMPPPSMPMSHQMPGSMGMQGGMNPQMSQSHFMGAPSGVFQGQPNSGGPQMYPQGRGGFNRPQMIPGYNNPFQQQQQPPLPPGPPPNNNQQHQ
binding [2]: binds
binding [3]: binds

B3: HA-CPSF73-I (protein, UniProt Q9C952 1-693)
chain: MASSSTSLKRREQPISRDGDQLIVTPLGAGSEVGRSCVYMSFRGKNILFDCGIHPAYSGMAALPYFDEIDPSSIDVLLITHFHIDHAASLPYFLEKTTFNGRVFMTHATKAIYKLLLTDYVKVSKVSVEDMLFDEQDINKSMDKIEVIDFHQTVEVNGIKFWCYTAGHVLGAAMFMVDIAGVRILYTGDYSREEDRHLRAAELPQFSPDICIIESTSGVQLHQSRHIREKRFTDVIHSTVAQGGRVLIPAFALGRAQELLLILDEYWANHPDLHNIPIYYASPLAKKCMAVYQTYILSMNDRIRNQFANSNPFVFKHISPLNSIDDFNDVGPSVVMATPGGLQSGLSRQLFDSWCSDKKNACIIPGYMVEGTLAKTIINEPKEVTLMNGLTAPLNMQVHYISFSAHADYAQTSTFLKELMPPNIILVHGEANEMMRLKQKLLTEFPDGNTKIMTPKNCESVEMYFNSEKLAKTIGRLAEKTPDVGDTVSGILVKKGFTYQIMAPDELHVFSQLSTATVTQRITIPFVGAFGVIKHRLEKIFESVEFSTDEESGLPALKVHERVTVKQESEKHISLQWSSDPISDMVSDSIVALILNISREVPKIVMEEEDAVKSEEENGKKVEKVIYALLVSLFGDVKLGENGKLVIRVDGNVAQLDKESGEVESEHSGLKERVRVAFERIQSAVKPIPLSAS
binding [2]: binds
binding [3]: binds

No constants are given. Whether binding was seen depends on the method and setting. Binding seen in cells or lysates may run through a third protein. Binding calls can cover weak binding; strength is not graded here. Tags and fused reporters may be left off the sequences shown. One block for each molecule: values may come before it.
